Among the data in article PMC6733871 are binding values, retold here.

Chains of the proteins cited; added tags and fusions are not shown. Lines headed by an entry give the natural chain unless they say otherwise; changes in a name come on top.
UniProt P08253: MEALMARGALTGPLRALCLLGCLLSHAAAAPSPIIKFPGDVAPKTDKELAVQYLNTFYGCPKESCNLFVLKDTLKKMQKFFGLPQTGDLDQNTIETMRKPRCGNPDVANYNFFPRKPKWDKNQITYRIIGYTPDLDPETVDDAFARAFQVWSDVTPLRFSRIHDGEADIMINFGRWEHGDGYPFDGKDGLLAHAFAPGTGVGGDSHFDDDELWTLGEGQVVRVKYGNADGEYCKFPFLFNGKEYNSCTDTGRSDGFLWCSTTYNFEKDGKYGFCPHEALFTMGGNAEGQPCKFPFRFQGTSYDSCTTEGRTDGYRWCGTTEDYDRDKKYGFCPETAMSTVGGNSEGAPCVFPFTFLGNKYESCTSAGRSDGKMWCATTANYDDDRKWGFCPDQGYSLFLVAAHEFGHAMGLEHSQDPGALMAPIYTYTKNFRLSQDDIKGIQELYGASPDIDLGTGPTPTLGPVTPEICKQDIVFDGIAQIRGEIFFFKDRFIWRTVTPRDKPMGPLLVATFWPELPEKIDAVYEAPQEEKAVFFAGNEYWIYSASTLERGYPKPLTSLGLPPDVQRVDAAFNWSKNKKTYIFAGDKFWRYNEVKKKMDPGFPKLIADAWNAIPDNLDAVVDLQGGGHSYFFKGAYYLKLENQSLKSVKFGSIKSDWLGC

The target of this experiment is T1, LPL in the co-immunoprecipitation with MMP2 (UniProt P13796).
T1 sequence: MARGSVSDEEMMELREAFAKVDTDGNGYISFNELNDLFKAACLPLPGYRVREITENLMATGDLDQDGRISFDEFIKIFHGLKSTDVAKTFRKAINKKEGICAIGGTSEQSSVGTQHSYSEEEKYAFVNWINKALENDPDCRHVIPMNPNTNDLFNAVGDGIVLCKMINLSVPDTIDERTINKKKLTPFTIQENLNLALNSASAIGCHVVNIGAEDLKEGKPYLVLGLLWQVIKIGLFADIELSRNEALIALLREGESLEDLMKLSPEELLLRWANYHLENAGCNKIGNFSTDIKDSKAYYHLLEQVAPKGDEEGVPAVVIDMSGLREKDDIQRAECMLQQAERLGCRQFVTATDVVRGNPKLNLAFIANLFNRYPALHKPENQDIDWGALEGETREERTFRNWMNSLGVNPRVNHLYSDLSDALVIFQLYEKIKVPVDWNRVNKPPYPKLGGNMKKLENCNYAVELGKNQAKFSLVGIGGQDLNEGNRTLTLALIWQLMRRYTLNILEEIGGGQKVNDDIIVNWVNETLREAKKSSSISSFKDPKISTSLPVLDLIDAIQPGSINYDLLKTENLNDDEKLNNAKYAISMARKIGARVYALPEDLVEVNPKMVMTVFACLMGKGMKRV
The experiment is described as follows: co-IP; co-immunoprecipitation of MMP2 and LPL; conditions not told in the text shown (Supplementary Fig. 6e).

No constants are given. Whether binding was seen depends on the method and setting. In cells and extracts the contact can be indirect. Binding can be weak; no strength is given.

For the substance MMP2 (from UniProt P08253) (enzyme), the binding entry is recorded as “binds”.
